Results: PMC9722767

Tested on: T1, MsmR1 (Paenibacillus polymyxa SC2-M1 (SC2 derivative))
T1 sequence (looked up): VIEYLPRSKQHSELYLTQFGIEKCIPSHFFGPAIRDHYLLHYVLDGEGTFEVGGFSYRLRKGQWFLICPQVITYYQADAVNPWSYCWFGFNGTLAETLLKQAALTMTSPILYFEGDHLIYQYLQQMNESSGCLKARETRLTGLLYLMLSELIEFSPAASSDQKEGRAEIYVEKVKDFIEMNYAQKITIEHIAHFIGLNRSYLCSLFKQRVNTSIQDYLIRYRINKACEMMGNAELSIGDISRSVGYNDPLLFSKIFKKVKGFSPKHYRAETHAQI
Test: EMSA
Details: Chemiluminescent EMSA kit (Beyotime); labeled probe about 0.4 uM, competitor about 4 uM, protein gradient; pH and temperature not stated; recombinant protein; residues 1-275; label: biotin (5' of forward primer, from primer name); probe letters rebuilt from the primers and the genome

“GAAGATGTGGCCGGACATGGTATCACCAGTGGGCTGGAGCGATATAGCTTTAAGCATTGCGCATTGCCGGAGCTACACTTTGACGAGGTGCGTCTGGATACCAAATTTATGGGACGTACTGTACGGACACCGCTGCTCATCAGTTCGATGACAGGCGGCAGCGCCGAGACAGGAGCGATTAATGAGCGATTAGCAGAGACAGCAGAGAGACGTGGCTGGGCGCTGGGTGTCGGCTCGGTACGAGCTGCGGTGGAAAAAGAAGAATTGGCCTCAACTTTTGCGGTTCGCCGTCTGGCACCCAGCATCCCGATCCTTGCTAATCTGGGTGCAGTGCAGCTGAACTACGGATTTGGCGTGGATGATTGCCAACGTGCAGTGGAAATTGCCGGAGCGGATA (double strand) [yycN upstream fragment]”: binds.

Tags and fusion partners may be left off the protein sequences shown.
